Positions count from the first letter of the chain named. No constants are given. Whether binding was seen depends on the method and setting. Binding seen in cells or lysates may run through a third protein. Some binding calls cover weakened binding; strength is not graded here.
Legend:
[1] = biological target: RhoGDI1 (endogenous, mouse pancreatic acini) (mouse (endogenous in pancreatic acini of ICR mice)) (UniProt Q99PT1); assay: co-IP; cytosolic fraction (1000 µg) of mouse pancreatic acini rotated overnight at 4°C with rabbit anti-RhoGDI1, protein A-agarose; blots for RhoA, Rac1, Cdc42; acini with or without CCK (300 pM) for 5, 15 or 30 min
[2] = biological target: T1, S34A-RhoGDI1 (phosphodefective mutant) (human) (UniProt P52565); assay: co-IP; total lysates of mouse pancreatic acini expressing WT or mutant human RhoGDI1 by adenovirus (alone or with HA-CA-RhoA or HA-CA-Rac1); IP with rabbit anti-RhoGDI1, protein A-agarose; blots for RhoA, Rac1 or the HA tag
T1 sequence: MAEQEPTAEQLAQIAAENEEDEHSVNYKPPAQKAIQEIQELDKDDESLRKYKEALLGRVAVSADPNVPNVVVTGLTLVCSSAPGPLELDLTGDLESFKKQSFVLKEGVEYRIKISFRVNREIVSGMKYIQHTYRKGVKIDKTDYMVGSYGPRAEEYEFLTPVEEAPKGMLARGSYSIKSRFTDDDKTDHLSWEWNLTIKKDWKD

Sequences of proteins named here, by UniProt entry; tags and fusion partners are left off.
UniProt Q9QUI0: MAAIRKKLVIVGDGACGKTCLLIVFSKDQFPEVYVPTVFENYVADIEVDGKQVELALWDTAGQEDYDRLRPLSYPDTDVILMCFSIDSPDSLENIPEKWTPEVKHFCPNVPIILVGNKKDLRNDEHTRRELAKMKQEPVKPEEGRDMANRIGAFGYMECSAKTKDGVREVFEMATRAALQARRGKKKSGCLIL

[3] = biological target: T2, S34D-RhoGDI1 (phosphomimetic mutant) (human) (UniProt P52565); assay: as above
T2 sequence: T1 sequence with A34D

[4] = biological target: T3, S96A-RhoGDI1 (phosphodefective mutant) (human) (UniProt P52565); assay: as above
T3 sequence: T1 sequence with A34S, S96A

[5] = biological target: T4, wild-type (WT) human RhoGDI1, overexpressed in pancreatic acini (human) (UniProt P52565); assay: as above
T4 sequence: T1 sequence with A34S

Measured: binding

RhoA (endogenous, mouse pancreatic acini) (from UniProt Q9QUI0 1-193)
binds: all assays above

Source: article PMC3679036
